PubChem BioAssay AID1224830 | NIAID, 2016
Aim: 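Host factors that control LPS-induced TNF expression in human macrophages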 (primary screen). Cell system: human THP-1 monocytic leukaemia cells, TNF dual-luciferase reporter clone, PMA-differentiated to macrophage-like cells. Reagent: siRNA pool against human genes, 50 nM. Timing: LPS for 4 h, given about 3 days after siRNA transfection. Conditions: bacterial LPS (TLR4 ligand), 10 ng/ml. Measurement: 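TNF firefly reporter luminescence divided by renilla, normalised to the plate median, then turned into a robust z-score for each replicate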. Scale: TNF reporter robust z-score: higher = stronger TNF reporter response to LPS. Active means: 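Each well counts as active if its z-score is over 2.8 or under -1.5; controls are left without a call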.
The deposit covers about 18,000 reagents; this is a random part of them. Over the whole deposit, about 2,900 (16%) are marked active. 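Calls are made per well; low scores hint the gene aids the LPS response, high scores that it dampens it.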 Repeated entries: four replicate wells of each siRNA pool.

With ASTN2, how do the results read?
TNF reporter robust z-score: -0.97; call: inactive

What did the screen give for ASTN2?
TNF reporter robust z-score: -0.84; call: inactive

For ASTN2, how do the results read?
TNF reporter robust z-score: -1.72; call: active

With ASTN2, how do the results read?
TNF reporter robust z-score: -0.02; call: inactive

Which result is listed for CAPS2?
TNF reporter robust z-score: 3.55; call: active

With CAPS2, what does the deposit list?
TNF reporter robust z-score: 5.44; call: active

For CAPS2, what was measured?
TNF reporter robust z-score: 0.63; call: inactive

With CAPS2, what does the deposit list?
TNF reporter robust z-score: 0.96; call: inactive

With RABEP1, what was measured?
TNF reporter robust z-score: 1.74; call: inactive

What did the screen give for RABEP1?
TNF reporter robust z-score: 1.9; call: inactive

With RABEP1, what does the deposit list?
TNF reporter robust z-score: 1.77; call: inactive

What did the screen give for RABEP1?
TNF reporter robust z-score: 1.75; call: inactive

For DRD2, how do the results read?
TNF reporter robust z-score: -1.06; call: inactive

Which result is listed for DRD2?
TNF reporter robust z-score: -0.93; call: inactive

For DRD2, what does the deposit list?
TNF reporter robust z-score: -0.94; call: inactive

How did the screen score DRD2?
TNF reporter robust z-score: -0.38; call: inactive

What is on record for LY6S-AS1?
TNF reporter robust z-score: 1.48; call: inactive

What is on record for LY6S-AS1?
TNF reporter robust z-score: 1.45; call: inactive

With LY6S-AS1, what was measured?
TNF reporter robust z-score: 1.07; call: inactive

With LY6S-AS1, how do the results read?
TNF reporter robust z-score: 2.57; call: inactive

What did the screen give for BPIFB1?
TNF reporter robust z-score: -0.78; call: inactive

What did the screen give for BPIFB1?
TNF reporter robust z-score: -0.33; call: inactive

What is on record for BPIFB1?
TNF reporter robust z-score: -0.72; call: inactive

How did the screen score BPIFB1?
TNF reporter robust z-score: -0.2; call: inactive

What is on record for MANF?
TNF reporter robust z-score: 2.56; call: inactive

For MANF, what was measured?
TNF reporter robust z-score: 2.7; call: inactive

Which result is listed for MANF?
TNF reporter robust z-score: 1.56; call: inactive

Which result is listed for MANF?
TNF reporter robust z-score: 2.78; call: inactive

What is on record for PKLR?
TNF reporter robust z-score: -1.53; call: active

With PKLR, what was measured?
TNF reporter robust z-score: -0.49; call: inactive

What did the screen give for PKLR?
TNF reporter robust z-score: -1.08; call: inactive

Which result is listed for PKLR?
TNF reporter robust z-score: 1.42; call: inactive
